No constants are given. Whether binding was seen depends on the method and setting. Some entries that bind do so weakly or less than the wild type.
Legend:
[1] = molecular target: SLC2A1 pseudotyped VLPs (UniProt P11166); assay: ELISA on coated SLC2A1 pseudotyped VLPs
[2] = molecular target: SLC2A1 pseudotyped VLPs (UniProt P11166); assay: ELISA on coated SLC2A1 pseudotyped VLPs (FIG. 1 legend)

By UniProt entry, the sequences of proteins in these tests, tags left out.
UniProt P11166: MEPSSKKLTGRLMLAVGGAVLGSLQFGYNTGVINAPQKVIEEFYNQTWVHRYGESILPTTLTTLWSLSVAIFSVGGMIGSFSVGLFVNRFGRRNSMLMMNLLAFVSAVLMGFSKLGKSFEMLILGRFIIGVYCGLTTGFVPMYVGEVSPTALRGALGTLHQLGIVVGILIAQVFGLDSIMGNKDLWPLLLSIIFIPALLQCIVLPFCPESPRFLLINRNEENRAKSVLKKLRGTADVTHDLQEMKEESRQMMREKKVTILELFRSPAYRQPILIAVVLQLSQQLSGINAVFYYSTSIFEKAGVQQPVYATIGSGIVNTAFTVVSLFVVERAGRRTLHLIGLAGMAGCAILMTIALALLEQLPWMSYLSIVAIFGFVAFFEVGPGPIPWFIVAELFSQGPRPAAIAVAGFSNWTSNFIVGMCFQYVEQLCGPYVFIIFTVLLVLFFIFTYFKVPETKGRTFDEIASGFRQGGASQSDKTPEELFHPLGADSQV

| Binder | binding [1] | binding [2] |
| --- | --- | --- |
| 5G5 #30 (antibody, V domains shown) VH: AVTLDESGGGLQTPGGALSLVCKASGFTFSSHAIFWVRQAPDKGLEFVAAISSSSGSWTAYATVVKGRATISRDNGQSTVRLQLNNLRAEDTGTYYCAKAAGSACCYAGSIDAWGHGTEVIVSS VL: ALTQPSSVSANPGETVKITCSGGSGSSYYGWYQQKSPGSAPVTVIYYDDKRPSDIPSRFSGSKSGSTATLTITGVQVEDEAVYYCGTGDGSIAIFGAGTTLTVL | binds | binds |
| 6F12 #33 (antibody, V domains shown) VH: AVTLDESGGGLQTPGGALSLVCKASGFTFSDHAIFWVRQAPDKGLEFVAAISSGTGSWTAYATVVKGRATISRDNGQSTVRLQLNNLRAADTATYYCAKGAGSACCYAGSIDAWGHGTEVIVSS VL: ALTQPSSVSANPGETVKITCSGGSSSSYYGWYQQKSPGSAPVTLIYYNDKRPSDIPSRFSGSKSGSTATLTITGVQVEDEAVYYCGTGDGSFAIFGAGTTLTVL | binds | binds |
| 1G2 #9 (antibody, V domains shown) VH: AVTLDESGGGLQTPGGALSLVCKASGFTFSTKGMGWVRQTPGKGLEWVAGISSMRRYTYYAPAVKGRATISRDNGQSTVRLQLSSLRAEDSGTYYCARDATYCSWTTSTCGWSGGTIDAWGHGTEVIVSS VL: ALTQPSSVSANPGETVKITCSGSSGSYGWYQQKSPGSAPVTVIYWDDERPSGIPSRFSGSASGSTATLTITGVQAEDEAVYFCGSIDSSVGYVGIFGAGTTLTVL | binds | binds |
| 2E5 #22 (antibody, V domains shown) VH: AVTLDESGGGLQTPGGALSLVCKASGFTFSTKGMGWVRQTPGKGLEWVAGISSMRRYTYYAPAVKGRATISRDNGQSTVRLQLSSLRAEDSGTYYCARDATYCSWTTSTCGWSGGTIDAWGHGTEVIVSS VL: ALTQPSSVSANLGGTVKITCSGGSGNYGWYQQKSPGSVPVTVIYSNDKRPSDIPSRFSGSGSGSTATLTITGVQVEDEAVYFCGSRDSSYVGLFGAGTTLTVL | binds | binds |
| 7C3 #39 (antibody, V domains shown) VH: AVTLDESGGGLQTPGGALSLVCKASGFTFSTKGMGWVRQTPGKGLEWVAGISSMRRYTYYAPAVKGRATISRDNGQSTVRLQLSSLRAEDSGTYYCARDATYCSWTTSTCGWSGGTIDAWGHGTEVIVSS VL: ALTQPSSVSANLGGTVKITCSGGGSSSYYGWYQQKSPGSAPVTVIYGNDRRPSDIPSRFSGSASGSTATLTITGVQAEDEAVYFCGSADSSDSGSGIFGAGTTLTVL | binds | binds |
| 2A2 #12 (antibody, V domains shown) VH: AVTLDESGGGLQTPGGALSLVCKGSGFTFSTKGMMWVRQAPGKGLEWVAGISSMSRYTYYAPAVKGRATISRDNGQSAVRLQLSSLRAEDTGTYYCARDATYCSWTASTCGWSGGTIDAWGHGTEVIVSS VL: ALTQPSSVSANPGETVKITCSGGYSYYGTYYYSWYQQKSPGSAPVTLIYRNDKRPSDIPSRFSGSGSGSTSTLTITGVQAEDEAVYFCGSYDSSDSGIFGAGTTLTVL | binds | binds |
